Laboratory results from PubChem BioAssay AID220 (DTP/NCI, 2004).
The list is a part of this screen's results and no random one: it gathers tests that were run many times, whatever their T/C, doses with no T/C, and many T/C values between a quarter and a half above the control. Further doses and runs are listed elsewhere. T/C is the treated group as % of the vehicle group. Schedules are NCI's codes, read here as Q, the interval in days (D) or hours (H), X, the number of doses. Some T/C values are followed by the survivors on the day toxicity was checked, most often the fifth; where none is given, no animal had died by that day. Some doses have a count of surviving animals in place of a T/C: the source holds a T/C of zero for them, seemingly a mark for toxic or unscored doses. Counts of survivors are from the toxicity check (mostly the fifth day) where no day follows; animals may have died later. Some doses were run more than once; their values stand side by side, smallest first.

Tested on: CD8F1 mice, subcutaneous mammary adenocarcinoma, T/C%
Assay: NCI In Vivo Anticancer Drug Screen. Data for tumor model Mammary Adenocarcinoma CD8F1 (subcutaneous) in CD8F1
Settings: higher T/C = larger tumour
Method in brief: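 Transplantable tumors were established in mice, animals were dosed with compound or vehicle, and survival or tumor size was then measured in both groups. The treated result was divided by the control result.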

[1] = T/C endpoint: median tumor weight change, dose: 125.0 mg/kg/injection, schedule: Q01DX001 (ip), vehicle: saline
[2] = T/C endpoint: median tumor weight change, dose: 250.0 mg/kg/injection, schedule: Q01DX001 (ip), vehicle: saline
[3] = T/C endpoint: median tumor weight change, dose: 250.0 mg/kg/injection, schedule: Q01DX001 (ip), vehicle: saline with Tween-80
[4] = T/C endpoint: median tumor weight change, dose: 500.0 mg/kg/injection, schedule: Q01DX001 (ip), vehicle: saline with Tween-80
[5] = T/C endpoint: median tumor weight change, dose: 1000.0 mg/kg/injection, schedule: Q01DX001 (ip), vehicle: saline with Tween-80
[6] = T/C endpoint: median tumor weight change, dose: 2000.0 mg/kg/injection, schedule: Q01DX001 (ip), vehicle: saline with Tween-80

How did the survivor count (T/C endpoint: median tumor weight (est.), dose: 50.0 mg/kg/injection, schedule: Q07DX005 (ip), vehicle: saline) turn out when `N=C(N)CCCCCCCCC(=N)N` was run?
The survivor count was 0 of 10 on day 30.

What about the survivor count (T/C endpoint: median tumor weight change, dose: 7.81 mg/kg/injection, schedule: Q01DX001 (ip), vehicle: saline) of the same molecule?
Its survivor count is 6 of 10 on day 29.

And the survivor count (T/C endpoint: median tumor weight change, dose: 62.5 mg/kg/injection, schedule: Q01DX001 (ip), vehicle: saline)?
The survivor count was 0 of 10 on day 29.

And the survivor count (T/C endpoint: median tumor weight change, dose: 64.0 mg/kg/injection, schedule: Q01DX001 (ip), vehicle: saline)?
Its survivor count is 0 of 10 on day 34.

What about the survivor count [1] of the same molecule?
Its survivor count is 0 of 10 on day 29.

What about the survivor count [2] of the same molecule?
The survivor count was 0 of 10 on day 29.

Which survivor count [1] does the source give for `Cn1/c2cc/c1=C(\c1ccc(S(=O)(=O)O)cc1)c1ccc([n-]1)/C(c1ccc(S(=O)(=O)O)cc1)=c1/cc/c([nH]1)=C(\c1ccc(S(=O)(=O)O)cc1)c1ccc([n-]1)/C=2c1ccc(S(=O)(=O)O)cc1.O.O=S(=O)(O)C(F)(F)F.[Cu+2]` here?
Its survivor count is 2 of 10 on day 34.

And the survivor count [2]?
The survivor count was 0 of 10 on day 34.

What about the survivor count (T/C endpoint: median tumor weight change, dose: 500.0 mg/kg/injection, schedule: Q01DX001 (ip), vehicle: saline) of the same molecule?
The survivor count was 0 of 10 on day 34.

And the survivor count (T/C endpoint: median tumor weight change, dose: 1000.0 mg/kg/injection, schedule: Q01DX001 (ip), vehicle: saline)?
Its survivor count is 0 of 10 on day 34.

What does the source list for `COC1OC(CO)C(O)C(NC(=O)N(C)N=O)C1O` (stereo not given)?
T/C (T/C endpoint: median tumor weight change, dose: 125.0 mg/kg/injection, schedule: Q01DX001 (ip), vehicle: saline, evaluated on day 27): 126 % of control; T/C (T/C endpoint: median tumor weight change, dose: 250.0 mg/kg/injection, schedule: Q01DX001 (ip), vehicle: saline, evaluated on day 25): 80 % of control; T/C (T/C endpoint: median tumor weight change, dose: 250.0 mg/kg/injection, schedule: Q01DX001 (ip), vehicle: saline, evaluated on day 27): 111 % of control [9 of 10 alive on day 27]; T/C (T/C endpoint: median tumor weight change, dose: 250.0 mg/kg/injection, schedule: Q01DX001 (ip), vehicle: saline, evaluated on day 28): 74 % of control; T/C (T/C endpoint: median tumor weight change, dose: 250.0 mg/kg/injection, schedule: Q01DX001 (ip), vehicle: saline, evaluated on day 41): 97 % of control; T/C (T/C endpoint: median tumor weight change, dose: 500.0 mg/kg/injection, schedule: Q01DX001 (ip), vehicle: saline, evaluated on day 25): 71 % of control; T/C (T/C endpoint: median tumor weight change, dose: 500.0 mg/kg/injection, schedule: Q01DX001 (ip), vehicle: saline, evaluated on day 27): 78 % of control; T/C (T/C endpoint: median tumor weight change, dose: 500.0 mg/kg/injection, schedule: Q01DX001 (ip), vehicle: saline, evaluated on day 28): 32 % of control; T/C (T/C endpoint: median tumor weight change, dose: 500.0 mg/kg/injection, schedule: Q01DX001 (ip), vehicle: saline, evaluated on day 41): 138 % of control; T/C (T/C endpoint: median tumor weight change, dose: 1000.0 mg/kg/injection, schedule: Q01DX001 (ip), vehicle: saline, evaluated on day 25): 32 % of control; T/C (T/C endpoint: median tumor weight change, dose: 1000.0 mg/kg/injection, schedule: Q01DX001 (ip), vehicle: saline, evaluated on day 27): 6 % of control [8 of 10 alive on day 27]; T/C (T/C endpoint: median tumor weight change, dose: 1000.0 mg/kg/injection, schedule: Q01DX001 (ip), vehicle: saline, evaluated on day 28): 43 % of control [8 of 10 alive on day 28]; T/C (T/C endpoint: median tumor weight change, dose: 1000.0 mg/kg/injection, schedule: Q01DX001 (ip), vehicle: saline, evaluated on day 41): 105 % of control; survivor count (T/C endpoint: median tumor weight change, dose: 2000.0 mg/kg/injection, schedule: Q01DX001 (ip), vehicle: saline): 0 of 10 on day 27, 0 of 10 on day 28, 1 of 10 on day 25, 1 of 10 on day 41

With `BrC1CC(Br)c2c1c1c(c3c2C(Br)CC3Br)C(Br)CC1Br` (stereo not given) as the molecule, how does the survivor count (T/C endpoint: median tumor weight (est.), dose: 12.5 mg/kg/injection, schedule: Q07DX005 (ip), vehicle: saline with Tween-80) read?
Its survivor count is 6 of 10 on day 30.

And the T/C (T/C endpoint: median tumor weight (est.), dose: 100.0 mg/kg/injection, schedule: Q07DX005 (ip), vehicle: saline with Tween-80, evaluated on day 30)?
The T/C was 131 % of control.

What about the survivor count (T/C endpoint: median tumor weight (est.), dose: 400.0 mg/kg/injection, schedule: Q07DX005 (ip), vehicle: saline with Tween-80) of the same molecule?
The survivor count was 6 of 10 on day 30.

With `CCCCOC(=O)/C=C(\Br)C(=O)OCCCC` as the molecule, how does the T/C (T/C endpoint: median tumor weight (est.), dose: 12.5 mg/kg/injection, schedule: Q07DX005 (ip), vehicle: saline with Tween-80, evaluated on day 32) read?
The T/C was 139 % of control.

What does the source list for `O=C1N=C(Oc2ccccc2)SC1=O`?
survivor count (T/C endpoint: median tumor weight change, dose: 125.0 mg/kg/injection, schedule: Q01DX001 (ip), vehicle: saline with Tween-80): 1 of 10 on day 27; survivor count (T/C endpoint: median tumor weight change, dose: 250.0 mg/kg/injection, schedule: Q01DX001 (ip), vehicle: DMSO): 2 of 10 on day 31; survivor count [3]: 4 of 10 on day 27; survivor count (T/C endpoint: median tumor weight change, dose: 500.0 mg/kg/injection, schedule: Q01DX001 (ip), vehicle: DMSO): 0 of 10 on day 31; survivor count [4]: 0 of 10 on day 27; survivor count (T/C endpoint: median tumor weight change, dose: 1000.0 mg/kg/injection, schedule: Q01DX001 (ip), vehicle: DMSO): 0 of 10 on day 31; survivor count [5]: 0 of 10 on day 27; survivor count (T/C endpoint: median tumor weight change, dose: 2000.0 mg/kg/injection, schedule: Q01DX001 (ip), vehicle: DMSO): 0 of 10 on day 31; survivor count [6]: 0 of 10 on day 27

`CN=S(=O)(OCCCCCOS(=O)(=NC)c1ccccc1)c1ccccc1` (stereo not given) was tested. Which T/C (T/C endpoint: median tumor weight change, dose: 62.5 mg/kg/injection, schedule: Q01DX001 (ip), vehicle: saline with Tween-80, evaluated on day 40) did it give?
The T/C was 142 % of control.

What about the survivor count [3] of the same molecule?
The survivor count was 2 of 10 on day 29.

And the survivor count [4]?
Its survivor count is 0 of 10 on day 29 and 3 of 5 on day 28.

For `ClCCCCCCCCCCc1ccccc1`, which T/C (T/C endpoint: median tumor weight (est.), dose: 50.0 mg/kg/injection, schedule: Q07DX005 (ip), vehicle: Klucel (hydroxypropylcellulose) (HPC), evaluated on day 30) is on record?
Its T/C is 133 % of control [9 of 10 alive].

What does the source list for `O=[N+]([O-])O.[Ga]`?
T/C (T/C endpoint: mean tumor weight, dose: 100.0 mg/kg/injection, schedule: Q01DX009 (ip), vehicle: saline, evaluated on day 59): 149 % of control [9 of 10 alive]; survivor count (T/C endpoint: mean tumor weight, dose: 200.0 mg/kg/injection, schedule: Q07DX005 (ip), vehicle: saline): 5 of 10; survivor count (T/C endpoint: mean tumor weight, dose: 250.0 mg/kg/injection, schedule: Q07DX005 (ip), vehicle: saline): 4 of 10; survivor count (T/C endpoint: mean tumor weight, dose: 300.0 mg/kg/injection, schedule: Q07DX005 (ip), vehicle: saline): 1 of 10; T/C (T/C endpoint: median tumor weight (est.), dose: 25.0 mg/kg/injection, schedule: Q04DX005 (ip), vehicle: saline, evaluated on day 30): 135 % of control; T/C (T/C endpoint: median tumor weight (est.), dose: 25.0 mg/kg/injection, schedule: Q07DX005 (ip), vehicle: saline, evaluated on day 30): 143 % of control; T/C (T/C endpoint: median tumor weight (est.), dose: 100.0 mg/kg/injection, schedule: Q04DX005 (ip), vehicle: saline, evaluated on day 30): 147 % of control [8 of 10 alive]; T/C (T/C endpoint: median tumor weight (est.), dose: 100.0 mg/kg/injection, schedule: Q07DX004 (ip), vehicle: saline, evaluated on day 30): 144 % of control; survivor count (T/C endpoint: median tumor weight (est.), dose: 200.0 mg/kg/injection, schedule: Q07DX005 (ip), vehicle: saline): 1 of 10

How did the T/C (T/C endpoint: mean tumor weight, dose: 12.5 mg/kg/injection, schedule: Q07DX006 (ip), vehicle: saline, evaluated on day 38) turn out when `O=NN(CCCl)C(=O)NC1CCCCC1` was run?
Its T/C is 133 % of control [9 of 10 alive].

And the survivor count (T/C endpoint: median tumor weight change, dose: 64.0 mg/kg/injection, schedule: Q01DX001 (ip), vehicle: Klucel (hydroxypropylcellulose) (HPC))?
The survivor count was 2 of 10 on day 28.

And the survivor count (T/C endpoint: median tumor weight change, dose: 80.0 mg/kg/injection, schedule: Q01DX001 (ip), vehicle: Klucel (hydroxypropylcellulose) (HPC))?
Its survivor count is 2 of 10 on day 33.

And the survivor count (T/C endpoint: median tumor weight change, dose: 120.0 mg/kg/injection, schedule: Q01DX001 (ip), vehicle: Klucel (hydroxypropylcellulose) (HPC))?
Its survivor count is 4 of 9 on day 35.

And the survivor count (T/C endpoint: median tumor weight change, dose: 160.0 mg/kg/injection, schedule: Q01DX001 (ip), vehicle: Klucel (hydroxypropylcellulose) (HPC))?
The survivor count was 1 of 10 on day 29 and 3 of 10 on day 33.

What does the source list for `N#CCCSC(=S)C1CCCC1=N` (stereo not given)?
T/C (T/C endpoint: median tumor weight change, dose: 62.5 mg/kg/injection, schedule: Q01DX001 (ip), vehicle: saline with Tween-80, evaluated on day 26): 148 % of control; T/C (T/C endpoint: median tumor weight change, dose: 125.0 mg/kg/injection, schedule: Q01DX001 (ip), vehicle: saline with Tween-80, evaluated on day 26): 143 % of control; T/C (T/C endpoint: median tumor weight change, dose: 250.0 mg/kg/injection, schedule: Q01DX001 (ip), vehicle: saline with Tween-80, evaluated on day 35): 135 % of control; survivor count [5]: 0 of 10 on day 35 and 6 of 10 on day 26; survivor count [6]: 0 of 10 on day 35 and 2 of 10 on day 26
